{"source": "paper PMC9915011", "about": "“Polymyxin B Conjugates with Bio-Inspired Synthetic Polymers of Different Nature” (International Journal of Molecular Sciences, 2023)", "origin": "cited, not measured here", "tested_on": "S. aureus", "conditions": "cited from earlier work", "from_the_text": "A series of conjugates of loracarbef (cephalosporins) and ciprofloxacin (fluroquinolones) with sideromycins (siderophores) was synthesized and tested against a panel of ESKAPEE bacteria (Enterococcus faecium, S. aureus, Klebsiella pneumoniae, A. baumannii, P. aeruginosa, Enterobacter aerogenes, E. coli)."}
{"smiles": "O=C(O)c1cn(C2CC2)c2cc(N3CCNCC3)c(F)cc2c1=O", "note": "[ciprofloxacin]", "values": [{"measurement": "MIC", "value": 0.5, "unit": "µM"}]}
